Screening data, single-dose tests

Sequences of proteins named here, by UniProt entry; tags and fusion partners are left off.
UniProt P9WPC5, whole entry: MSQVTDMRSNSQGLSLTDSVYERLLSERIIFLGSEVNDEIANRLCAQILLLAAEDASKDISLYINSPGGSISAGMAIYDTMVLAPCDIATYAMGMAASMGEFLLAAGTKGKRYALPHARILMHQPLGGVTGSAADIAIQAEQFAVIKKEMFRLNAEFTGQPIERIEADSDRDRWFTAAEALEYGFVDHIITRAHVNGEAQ
UniProt P9WPC3, whole entry partner: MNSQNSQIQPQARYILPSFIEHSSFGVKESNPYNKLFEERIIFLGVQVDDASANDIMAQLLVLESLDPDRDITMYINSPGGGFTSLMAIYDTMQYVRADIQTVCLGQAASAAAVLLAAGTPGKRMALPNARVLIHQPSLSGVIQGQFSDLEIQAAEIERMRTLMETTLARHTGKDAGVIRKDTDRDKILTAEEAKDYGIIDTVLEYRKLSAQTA
UniProt P9WFT3, whole entry: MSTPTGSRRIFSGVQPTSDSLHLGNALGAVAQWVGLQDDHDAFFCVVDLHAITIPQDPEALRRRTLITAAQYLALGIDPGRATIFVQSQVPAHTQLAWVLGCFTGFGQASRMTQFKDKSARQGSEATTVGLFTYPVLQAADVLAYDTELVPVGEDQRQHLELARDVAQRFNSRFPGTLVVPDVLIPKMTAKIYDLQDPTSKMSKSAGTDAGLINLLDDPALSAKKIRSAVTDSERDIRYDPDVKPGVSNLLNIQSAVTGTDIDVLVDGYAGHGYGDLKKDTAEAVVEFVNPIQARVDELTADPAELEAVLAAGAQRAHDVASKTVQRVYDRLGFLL

Measurements from “University of Dundee, Small-Polar-MMV Screening Library” (2021), ChEMBL document CHEMBL3988442.

ClpP1P2: 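Protease assay of ClpP1P2, read by the AMC dye that it sets free. Target: ClpP1P2, Mycobacterium tuberculosis (UniProt P9WPC5 and UniProt P9WPC3). Tested at 50 µM. Higher reads as stronger inhibition, judged from the few compounds that gave an IC50. Most other retested compounds had strongly negative values. Of about 69,000 compounds tested this way, about 10 (0.015%) reached 50% or more in at least one test.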
MtTrpRS: 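Enzyme assay of tryptophanyl-tRNA synthetase; the read-out is not stated. Target: Tryptophan-tRNA ligase, Mycobacterium tuberculosis (UniProt P9WFT3). Compounds at 10 µM. Higher most likely means stronger inhibition; the record gives no direction and few retests gave an IC50. About 65,000 compounds were tested under these conditions; 0.098% (about 64) showed 50% or more at least once.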

Values are the deposited “Percent Effect”, in %.
The controls that fix the scale are not given in the record; negative values are as filed.
This is an unselected part of the compounds tested.
A dash means the value is not listed here; it may have been measured.

SMILES | ClpP1P2 | MtTrpRS
COc1cc(F)ccc1N(C)Cc1cccnc1 | 9.114 | 1.474
CCCc1nc(C)c(C(=O)NC2CCN(c3ncccn3)CC2)s1 | 1.341 | -5.818
CC(=O)N1CCCCC[C@@H]2[C@@H]1[C@H](c1cccc(F)c1)CN2CCC(N)=O | -8.34 | -8.708
CC1(C)O[C@@](C)([C@H]2CC3(CCN(c4ncccn4)CC3)CO2)CC[C@@H]1O | -10.55 | -3.329
O=C([C@@H]1CC[C@@H]2[C@@H](CCN2c2ncccn2)O1)N1CCCO1 | 4.44 | 19.95
CC(=O)N1CCc2nnc(C3CCCCN3CC3CCCCC3)n2CC1 (centres undefined) | -15.92 | 10.51
COCc1nc(CN2CCN(c3ccc(OC)cc3)C(=O)C2C)no1 (centres undefined) | -2.465 | -1.224
CC(C)Cn1nnnc1SC(C(=O)NCc1cccnc1)C(C)C (centres undefined) | -24.55 | 3.116
c1ccc(Cc2noc(CN3CCCCC3Cn3cncn3)n2)cc1 (centres undefined) | -13.06 | 7.972
O=C(CCC(=O)N1CCc2[nH]c3ccccc3c2C1)NCc1ccco1 | 3.938 | 1.54
O=C([C@@H]1CCO[C@@H]2CCN(CC3CCOCC3)C[C@H]21)N1CCCC1 | -1.709 | -7.277
CCCN(CC)c1ccc(C(=O)N2CCCC2c2cnn(C)c2)cn1 (centres undefined) | -17.01 | -3.888
Cc1nsc(NC(=O)NC2CCCN(C)C2)n1 (centres undefined) | 7.273 | -3.958
CC1CCN(S(=O)(=O)N2CCCC(c3cccc(C(=O)O)c3)C2)CC1 (centres undefined) | 1.248 | -1.847
c1ccc2c(c1)CCN2c1nc(N2CCOCC2)c2nn[nH]c2n1 | -2.395 | 4.083
CSCCC(O)C(=O)N1CCCN(Cc2ccc(F)cc2)CC1 (centres undefined) | 7.073 | 2.685
Cc1cc2c(C)cc(O)cc2c(=O)o1 | -0.5919 | -5.416
O=S(=O)(N1CCCC1)N1CCc2sccc2C1 | -6.413 | 5.267
CS(=O)(=O)NCc1nnc2n1CCN(Cc1ccc(F)cc1)C2 | -8.856 | 1.407
CCCn1ncc(C(=O)N(CCOC)Cc2c(C)nn(CC)c2C)c1C | 11.59 | -7.555
O=C(CC1CC1)N1CC[C@H]2[C@@H]1CCC(=O)N2Cc1ccncc1 | -3.867 | 1.66
CCN(Cc1cccc(C)c1)Cn1nc(C)c2c(C)onc2c1=O | 1.592 | -1.183
CCSCCn1cc(-c2nccs2)nn1 | -3.535 | 2.254
O=C(NCc1ccco1)[C@@H]1C[C@H]2OCC[C@H]2N(c2ncc(F)cn2)C1 | -13.04 | -8.245
OCC1CCCCN1CCn1ccnc1-c1nc2ccccc2[nH]1 (centres undefined) | -12.27 | -4.156
Cc1c(-c2c(-c3ccccc3)ncn2[C@H](CO)C(=O)O)cnn1C | 9.973 | -1.445
O=C(Nc1c(F)cccc1F)N1CC(c2nc(C3CC3)no2)C1 | 2.882 | -2.66
CCOC[C@]12COC[C@H]1CN(Cc1ccc3c(c1)OCO3)C2 | 1.526 | -
CC(=O)N1CCCC1c1cc(N2CCN(CC(C)(C)C)CC2)cc(C)n1 (centres undefined) | 0.6257 | -
CC(C)c1noc(C2CCCN2S(=O)(=O)Cc2ccc(F)cc2)n1 (centres undefined) | -12.86 | -2.093
O=C(Nc1ccccc1)[C@H]1CN2CC[C@H]1C[C@@H]2Cn1cc(CCO)nn1 | -1.685 | -2.033
c1ccc(-c2cnc(CNC3CCCN(c4cccnn4)C3)o2)cc1 (centres undefined) | -3.628 | 1.856
CC(CN1CCCC1=O)NC(=O)c1ccc(-c2ccco2)[nH]c1=O (centres undefined) | -970.8 | 3.985
O=C(Nc1nncs1)NC1CCc2ccccc21 (centres undefined) | -6.11 | 4.852
CCN(CC)C1CCN(C(=O)c2cc(-n3cccn3)ccc2Cl)CC1 | 2.01 | 0.2114
CCN1CCC(NC(=O)CN2CCCC2Cn2nc(C)nc2C)CC1 (centres undefined) | -17.4 | -4.153
COCC1CC2(CCNCC2)CN1Cc1csc(C)n1 (centres undefined) | 8.524 | -0.6347
CNC(=O)C1(C)CN(S(=O)(=O)c2cccc(OC)c2)CCO1 (centres undefined) | -8.015 | 10.64
CCCC1CCCN(C(=O)Nc2ccc(F)c(C(N)=O)c2)CC1 (centres undefined) | -7.266 | 2.647
CC(=O)N1CC[C@H]2CC(=O)N(CCc3c[nH]cn3)CC[C@H]2C1 | -4.484 | -0.9863
Cc1nnc(NC(=O)NCc2ccc(C)n2C)s1 | -2.906 | 13.19
CN(C)S(=O)(=O)N1C[C@@H]2CC[C@H](C1)N(C/C=C/c1ccc(F)cc1)C2 | 7.305 | 6.244
O=S1(=O)CCC(c2nnc(-c3cnc4onc(C5CCCC5)c4c3)o2)C1 (centres undefined) | -0.5423 | -1.845
CCC(NC(=O)c1cc(CC(C)C)nn1C)c1ccnn1C (centres undefined) | -1.343 | 8.776
O=C(C1CC=CC1)N1CCCn2nnc(CNc3ncccn3)c2C1 | -9.589 | -
Cn1cc(-c2cnc(N3CCOCC3)nc2)cc1C(=O)N1CCOCC1 | 1.711 | 0.5286

For reference, 4 entries once more:

With CC1CCN(S(=O)(=O)N2CCCC(c3cccc(C(=O)O)c3)C2)CC1 (centres undefined) the screen gave ClpP1P2: 1.248%; MtTrpRS: -1.847%.
With CNC(=O)C1(C)CN(S(=O)(=O)c2cccc(OC)c2)CCO1 (centres undefined) the screen gave ClpP1P2: -8.015%; MtTrpRS: 10.64%.
With CC(=O)N1CCc2nnc(C3CCCCN3CC3CCCCC3)n2CC1 (centres undefined) the screen gave ClpP1P2: -15.92%; MtTrpRS: 10.51%.
With CCN1CCC(NC(=O)CN2CCCC2Cn2nc(C)nc2C)CC1 (centres undefined) the screen gave ClpP1P2: -17.4%; MtTrpRS: -4.153%.